Results taken from US20120034608A1, “MICRORNA AS A BIOMARKER OF PANCREATIC ISLET BETA-CELL ENGAGEMENT” (Merck Sharp & Dohme Corp., priority 2009, published 2012).
For at least one compound, name, drawing or mass did not settle the structure.

System: INS-1 832/3 cells
Experiment: TAQMAN real-time quantitative RT-PCR of miRNA expression in INS-1 832/3 cells
Type: cell-based, rat
Details: 50 nM GLP-1, 50 nM Exendin-4, 5 μM IBMX, 1 μM Foskolin (FIG. 6A)
Protocol: INS-1 832/3 and 832/13 cells were maintained in RPMI 1640 with 10% FBS and 11 mM glucose. For GLP-1 treatment, GLP-1 (7-37) amide (ABCHEM) was added in the media in the presence of 16 mM glucose for 24 hours. Total RNA was extracted with TRIZOL as in Example 1. Rat islet isolation and treatment was as follows. Pancreatic islets of Langerhans were isolated from the pancreas of normal Sprague-Dawley rats (Charles River, Ind.) by collagenase digestion and discontinuous Ficoll gradient separation (15). Islets were cultured for 2 hours in RPMI 1640 medium with 11 mM glucose for recovery from the isolation process. Then 100-200 islets were treated with 50 nM GLP-1 in the media with 11 mM glucose for 24 hours. RNA was extracted with TRIZOL as in Example 1 for quantification of microRNA species.
Fluorogenic TAQMAN detector probes specific for miR-132 (Cat# TM457), miR-212 (Cat# TM515), miR-375 (Cat#TM564), and miR-217 (Cat#1133) were purchased from Applied Biosystems (Foster City, Calif.). The TAQMAN RT-PCR reactions were performed according to the manufacturer's instructions.
Relative miRNA levels for the miRNAs of interest were determined by real-time reverse transcription reaction using the ABI PRISM 7900 Sequence Detection System from Applied Biosystems (Foster City, Calif.) according to the manufacturer's protocol. Briefly, 10 ng of total RNA was mixed with 1 U MultiScribe Reverse Transcriptase, 0.25 U RNase Inhibitor, 3 μL hairpin-looped miRNA-specific RT primer, 1 mM dNTPs and 1× Reverse Transcription Buffer in a total volume of 15 μL. The mixture was incubated at 16° C. for 30 minutes, 42° C. for another 30 minutes, and the reaction was stopped by heating to 85° C. for 5 minutes. […] Data were collected and analyzed with SDS v.2.2.2 software (Applied Biosystems). […]
The absolute miRNA levels were determined by reverse transcription reactions in GeneAmp PCR system 9700 followed by amplification using the ABI PRISM 7900HT Sequence Detection System from Applied Biosystems (Foster City, Calif.) through 40 cycles. […]

C=C[C@@]1(C)CC(=O)[C@]2(O)[C@@]3(C)[C@@H](O)CCC(C)(C)[C@@H]3[C@H](O)[C@H](OC(C)=O)[C@@]2(C)O1 [forskolin]
miR-132 expression: significantly increased | miR-212 expression: significantly increased | miR-375 expression: remained unchanged
